Results are given in words; binding and its absence hold for the method and conditions named. Binding calls can cover weak binding; strength is not graded here. Where a sequence is shown, tags or fusion partners need not be part of it.
Experiments:
Assay in all cases: flow cytometry on cells; H variants on receptor-negative Vero cells, 1 h at 4°C with concentrated soluble HA-tagged SLAM supernatant (1:20), no mAb before; anti-HA MFI normalised to anti-FLAG MFI and to H-wt (100%)
[1] = target: H-short (-11), CDV H with stalk residues 125-135 deleted (canine distemper virus, strain A75/17)
[2] = target: CDV H mutant P127A (canine distemper virus, strain A75/17)
[3] = target: CDV H mutant W138A (canine distemper virus, strain A75/17)

Measured: binding

B1: soluble HA-tagged canine SLAM (receptor, UniProt Q95MM9 27-237)
chain: ESLMNCPEVPGKLGSSLQLSLASEGISKRMNKSIHILVTRAESPGNSIKKKIVSLDLPEGGSPRYLENGYKFHLENLTLRILESRRENEGWYFMTLEENFSVQHFCLQLKLYEQVSTPEIKVLNWTQENGNCSMMLACEVEKGDNVVYSWSEKLGIDPLIPANSSHLLHLSLGPQHVNNVYVCTVSNPVSNRSWSFNPWSKCRPESSVPRQ
binds: [1] | [2] | [3]

Reference: article PMC4422687
